From PubChem BioAssay AID485349 (National Center for Advancing Translational Sciences (NCATS), 2010)
Screen size: about 320,000 compounds; about 620 (0.19%) were called active. Calls come from the whole dose curve; as a rule, active = well fitted activation curve with a large enough effect; inconclusive = small, poorly fitted or top-dose-only effect; inactive = no such curve, though single readings can be large or run the other way. This is a selection; strong and weak results do not stand in their true shares. The source gives no active or inactive call for entries shown without one.

Assay: qHTS Assay for Identifying a Potential Treatment of Ataxia-Telangiectasia; note: % of control where 0% means no effect; nearly all actives have a fitted effect of over 45% in size
Details: […] A-T fibroblasts, KAP-1 phosphorylation AlphaLISA; at 57.5 µM (top of the series) unless noted
Description: NIH Chemical Genomics Center [NCGC] NIH Molecular Libraries Probe Centers Network [MLPCN] MLPCN Grant: MH089030-01 Assay Submitter (PI): Wei Zheng and Yosef Shiloh Ataxia-telangiectasia (A-T) is a devastating and progressive disease for which, there is no cure. Although A-T is a multisystem disease, it is stereotyped characterized by its neurological symptoms such as truncal ataxia, due to cerebellar cortical degeneration of the Purkinje and granule cells. Other symptoms of A-T are telangiectasias (dilated blood vessels), primary immunodeficiency, marked sensitivity to ionizing radiation (IR), chromosomal instability and predisposition to cancer. The underlying genetic cause of A-T is null mutations in the ATM (A-T mutated) gene. ATM is a nuclear serine/threonine kinase that functions as a master regulator of the cellular responses to double strand breaks (DSBs) in the DNA. Upon activation by DSBs, ATM phosphorylates a plethora of down stream targets, including KAP-1 on […]. KAP-1 phosphorylation occurs shortly in response to DSBs and mediates global chromatin relaxation, which facilitates DSB repair. To screen for small molecules that will compensate for the loss of ATM in cells derived from A-T patients, we monitored KAP-1 phosphorylation as a readout for ATM-like activity using an AlphaLISA assay.
qHTS Assay Protocol: Step,Parameter,Value,Description 1. Cell Plating, 3 ul, 500 cells/well in OPTI-MEM, 1% FBS, 1% Pen/Strep 2. Incubation, 16-24 hr, 37C, 5% CO2, 95% humidity 3. Library compounds, 23 nl, 76.7 - 0.61uM dilution series final concentration 4. Incubation, 60 min, 37C, 5% CO2, 95% humidity 5. Reagent, 1 ul, 1600 ng/ml NCS in PBS + 0.05% BSA + 0.005% Tween 20 6. Incubation, 30 min, 37C, 5% CO2, 95% humidity 7. Reagent, 1 ul, Premixed detection reagents and lysis buffer 8. Reagent, 1 ul, 0.6% Antifoam A 9. Incubation, 6 hr, 25C, 95% humidity 10. Readout, EnVision, EnVision plate reader. AlphaScreen 1536-well protocol Cells were plated using medium-binding white solid-bottom tissue culture treated Kalypsys plates. Multidrop dispense of 3 uL of […] (hTERT immortalized A-T patient fibroblast cells). Detection reagent and lysis buffer was 3.75nM Rab-a-pKAP1 antibody bound to 75 ng/ul AlphaScreen SA donor bead, 3.75 nM Biot-M-a-KAP1 antibody bound to AlphaLISA protein A acceptor bead, 0.5x protease inhibitor cocktail and 0.25x PerkinElmer lysis buffer. EnVision protocol for 1536-well AlphaScreen read (30ms excitation, 100ms read), about 10 min/plate.

SMILES	activation
CCc1ccc(N2C(=O)NC(=O)/C(=C\C=C\c3ccco3)C2=O)cc1	-50%
Cc1nc2ccccc2c(=O)n1-c1ccc(F)cc1F	53%
OCC[n+]1c2ccccc2nc2ccc(N3CCOCC3)cc21	inactive: -38%
Cc1ccc(C)c(NP(=O)(Oc2ccccc2)Oc2ccccc2)c1	56.7% [at 57.5 µM, neocarzinostatin DNA damage 30 min before lysis]
CCCCn1c(O)c(C(=O)/C=C/c2c[nH]c3ccccc23)c(=O)[nH]c1=O	63.2%
